According to publication PMC12656381:

Molecular target: T1, DM (psNTP9-DM) S208L,P216R (Pisum sativum (pea)) (UniProt P52914)
T1 sequence (looked up, limits assumed): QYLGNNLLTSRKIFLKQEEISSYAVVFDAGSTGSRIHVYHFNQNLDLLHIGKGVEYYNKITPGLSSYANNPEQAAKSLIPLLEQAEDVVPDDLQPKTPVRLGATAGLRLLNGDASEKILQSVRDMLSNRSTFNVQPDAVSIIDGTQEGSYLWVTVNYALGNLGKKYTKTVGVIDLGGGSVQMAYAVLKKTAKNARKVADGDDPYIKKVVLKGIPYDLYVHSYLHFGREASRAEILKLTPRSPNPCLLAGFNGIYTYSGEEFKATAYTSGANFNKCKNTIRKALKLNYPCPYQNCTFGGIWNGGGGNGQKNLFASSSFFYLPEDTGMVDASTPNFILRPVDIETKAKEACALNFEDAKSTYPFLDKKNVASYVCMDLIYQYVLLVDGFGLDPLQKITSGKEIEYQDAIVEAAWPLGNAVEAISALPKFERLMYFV
Experiment: EMSA
Details: EMSA: 10 mM Tris pH 7.5, 50 mM KCl, 1 mM DTT, 1 ug/uL poly dI-dC, 20 uL, 200 ng protein, room temperature 20-30 min, 6% native PAGE, 0.5x TBE, protein in a lysate after overexpression

Sequence | binding result (no significant shift) | binding result (no significant binding)
AGTTATTTTAACTAATAAACAGATAAAAAGAAATAAAAAGTACTAAATTGGTAAATTATCGTAGTATCAT (double strand) [WRKY42 test] | no binding | 
ATAATGTTACGCAGTTCCGAGCTTCGCTGACACGTGGGAGGTGGGATATAATATTTGCACGGGTTC (double strand) [PHM6 test] |  | no binding
TTCACTTTTCAACTTATCCCTCTCAATCCCCACCACCACCACTCTCTATTCCCTCATATAGATAGATCAT (double strand) [PER50 test] | no binding | 

The exact form of at least one protein or probe is not confirmed. Results from cells or extracts need not show a direct contact. No signal at the amounts used counts as a negative. Where a protein sequence is shown, tags need not be part of it.
